Assay results reported in the supplement of paper PMC6078165.
Values are relative to the signal before dosing, not to a vehicle control; the signal also falls without drug.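 Labels refer to human fibroblasts, largely primary: uterine (C12385, HUF), lung (H6013), bone (Hs27A), adrenal (HADF), skin (WS1), plus mammary HMF and breast cancer-associated Hs343T. Cancer lines are basal-like or mesenchymal-like triple-negative breast cancer. The paper counts as hits responses shifting over 3x the replicate standard deviation. The tissue of the other fibroblasts is not given here.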

System: HCC1143
Experiment: relative JC-1 red fluorescence (viability) vs pre-drug, coculture with fibroblast (fraction); higher = more viable cancer cells
Method: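 JC-1 labelled TNBC cells cocultured 1:1 (1,500 cells each) with CellTrace Violet stained primary or stromal fibroblasts in 384-well plates in FluoroBrite medium, treated with one of 42 anticancer drugs at 0.1, 1, 10 or 100 uM. JC-1 red fluorescence (mitochondrial integrity in cancer cells only) was read by plate reader every 8 h for 72 h. Values are normalised to each well's pre-drug value. The stock of one drug was tenfold lower, so its dose labels may be too high.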

N.N.[Cl][Pt][Cl] [Cisplatin]
relative JC-1 red fluorescence
Details | 8 h | 16 h | 24 h | 32 h | 40 h | 48 h | 56 h | 64 h | 72 h
0.1 µM, coculture fibroblast: C12385 | 0.8258 | 0.769 | 0.713 | 0.647 | 0.5913 | 0.5622 | 0.531 | 0.5023 | 0.49053
0.1 µM, coculture fibroblast: H6013 | 0.745 | 0.674 | 0.648 | 0.641 | 0.585 | 0.584 | 0.548 | 0.526 | 0.507
0.1 µM, coculture fibroblast: H6019 | 0.801 | 0.736 | 0.696 | 0.633 | 0.594 | 0.564 | 0.515 | 0.474 | 0.435
0.1 µM, coculture fibroblast: H6076 | 0.7979 | 0.761 | 0.741 | 0.717 | 0.67036 | 0.664 | 0.638 | 0.615 | 0.622
0.1 µM, coculture fibroblast: H6231 | 0.794 | 0.784 | 0.707 | 0.59 | 0.598 | 0.566 | 0.526 | 0.492 | 0.472
0.1 µM, coculture fibroblast: HADF | 0.695 | 0.621 | 0.58 | 0.577 | 0.482 | 0.461 | 0.428 | 0.404 | 0.401
0.1 µM, coculture fibroblast: HCFa | 0.763 | 0.682 | 0.648 | 0.63 | 0.547 | 0.518 | 0.478 | 0.451 | 0.441
0.1 µM, coculture fibroblast: HCPF | 0.7863 | 0.779 | 0.735 | 0.64 | 0.6422 | 0.6202 | 0.5859 | 0.561 | 0.543
0.1 µM, coculture fibroblast: HHSteC | 0.81 | 0.716 | 0.681 | 0.644 | 0.567 | 0.533 | 0.491 | 0.463 | 0.427
0.1 µM, coculture fibroblast: HMF | 0.7762 | 0.81588 | 0.742 | 0.639 | 0.646 | 0.614 | 0.572 | 0.539 | 0.515
0.1 µM, coculture fibroblast: HPFa | 0.9175 | 0.8337 | 0.8098 | 0.716 | 0.663 | 0.632 | 0.579 | 0.532 | 0.494
0.1 µM, coculture fibroblast: HUF | 0.862 | 0.785 | 0.742 | 0.678 | 0.634 | 0.603 | 0.563 | 0.541 | 0.518
0.1 µM, coculture fibroblast: Hs5 | 0.852 | 0.833 | 0.792 | 0.775 | 0.708 | 0.682 | 0.655 | 0.627 | 0.632
0.1 µM, coculture fibroblast: Hs27A | 0.712 | 0.647 | 0.615 | 0.63 | 0.512 | 0.513 | 0.472 | 0.446 | 0.439
0.1 µM, coculture fibroblast: Hs343T | 0.8087 | 0.83 | 0.774 | 0.667 | 0.6553 | 0.627 | 0.585 | 0.561 | 0.528
0.1 µM, coculture fibroblast: WS1 | 0.799 | 0.72 | 0.661 | 0.58 | 0.517 | 0.4729 | 0.436 | 0.407 | 0.389
1 µM, coculture fibroblast: C12385 | 0.8165 | 0.748 | 0.697 | 0.646 | 0.579 | 0.547 | 0.523 | 0.478 | 0.461
1 µM, coculture fibroblast: H6013 | 0.7534 | 0.69066 | 0.6535 | 0.6354 | 0.58487 | 0.586 | 0.55 | 0.53 | 0.487
1 µM, coculture fibroblast: H6019 | 0.8075 | 0.738 | 0.705 | 0.648 | 0.608 | 0.594 | 0.551 | 0.509 | 0.474
1 µM, coculture fibroblast: H6076 | 0.818 | 0.812 | 0.798 | 0.77 | 0.732 | 0.722 | 0.703 | 0.681 | 0.683
1 µM, coculture fibroblast: H6231 | 0.833 | 0.842 | 0.802 | 0.757 | 0.74 | 0.724 | 0.689 | 0.659 | 0.644
1 µM, coculture fibroblast: HADF | 0.697 | 0.638 | 0.608 | 0.608 | 0.525 | 0.51382 | 0.479 | 0.461 | 0.444
1 µM, coculture fibroblast: HCFa | 0.757 | 0.682 | 0.64 | 0.629 | 0.547 | 0.529 | 0.487 | 0.46 | 0.434
1 µM, coculture fibroblast: HCPF | 0.805 | 0.776 | 0.737 | 0.67 | 0.66 | 0.622 | 0.6 | 0.571 | 0.563
1 µM, coculture fibroblast: HHSteC | 0.813 | 0.745 | 0.708 | 0.6727 | 0.602 | 0.59 | 0.547 | 0.525 | 0.48
1 µM, coculture fibroblast: HMF | 0.803 | 0.8244 | 0.7521 | 0.668 | 0.657 | 0.618 | 0.589 | 0.57 | 0.547
1 µM, coculture fibroblast: HPFa | 0.8845 | 0.78984 | 0.7545 | 0.656 | 0.599 | 0.576 | 0.524 | 0.488 | 0.445
1 µM, coculture fibroblast: HUF | 0.889 | 0.825 | 0.788 | 0.722 | 0.677 | 0.665 | 0.624 | 0.603 | 0.581
1 µM, coculture fibroblast: Hs5 | 0.838 | 0.85 | 0.803 | 0.764 | 0.693 | 0.661 | 0.645 | 0.627 | 0.619
1 µM, coculture fibroblast: Hs27A | 0.706 | 0.66 | 0.625 | 0.641 | 0.543 | 0.545 | 0.521 | 0.512 | 0.497
1 µM, coculture fibroblast: Hs343T | 0.8026 | 0.8131 | 0.7563 | 0.6751 | 0.6489 | 0.60451 | 0.559 | 0.5343 | 0.505
1 µM, coculture fibroblast: WS1 | 0.829 | 0.767 | 0.729 | 0.656 | 0.605 | 0.568 | 0.531 | 0.505 | 0.473
10 µM, coculture fibroblast: C12385 | 0.847 | 0.763 | 0.7038 | 0.652 | 0.606 | 0.581 | 0.561 | 0.526 | 0.52
10 µM, coculture fibroblast: H6013 | 0.744 | 0.656 | 0.6155 | 0.614 | 0.55 | 0.544 | 0.521 | 0.508 | 0.501
10 µM, coculture fibroblast: H6019 | 0.803 | 0.734 | 0.697 | 0.645 | 0.609 | 0.58 | 0.545 | 0.523 | 0.509
10 µM, coculture fibroblast: H6076 | 0.8042 | 0.779 | 0.737 | 0.698 | 0.664 | 0.651 | 0.63 | 0.615 | 0.6285
10 µM, coculture fibroblast: H6231 | 0.826 | 0.828 | 0.7398 | 0.624 | 0.6498 | 0.621 | 0.578 | 0.549 | 0.524
10 µM, coculture fibroblast: HADF | 0.7125 | 0.646 | 0.612 | 0.628 | 0.534 | 0.517 | 0.496 | 0.482 | 0.504
10 µM, coculture fibroblast: HCFa | 0.785 | 0.705 | 0.673 | 0.665 | 0.587 | 0.56 | 0.534 | 0.516 | 0.512
10 µM, coculture fibroblast: HCPF | 0.7897 | 0.81 | 0.767 | 0.646 | 0.674 | 0.646 | 0.611 | 0.579 | 0.567
10 µM, coculture fibroblast: HHSteC | 0.8189 | 0.742 | 0.707 | 0.671 | 0.604 | 0.572 | 0.543 | 0.528 | 0.504
10 µM, coculture fibroblast: HMF | 0.7755 | 0.798 | 0.737 | 0.658 | 0.667 | 0.639 | 0.602 | 0.582 | 0.564
10 µM, coculture fibroblast: HPFa | 0.909 | 0.81 | 0.781 | 0.694 | 0.65 | 0.637 | 0.602 | 0.588 | 0.572
10 µM, coculture fibroblast: HUF | 0.86141 | 0.752 | 0.677 | 0.598 | 0.542 | 0.509 | 0.469 | 0.446 | 0.428
10 µM, coculture fibroblast: Hs5 | 0.858 | 0.836 | 0.81 | 0.784 | 0.723 | 0.699 | 0.6884 | 0.672 | 0.6822
10 µM, coculture fibroblast: Hs27A | 0.717 | 0.659 | 0.65 | 0.702 | 0.605 | 0.616 | 0.602 | 0.594 | 0.619
10 µM, coculture fibroblast: Hs343T | 0.8017 | 0.81 | 0.741 | 0.657 | 0.654 | 0.622 | 0.587 | 0.567 | 0.542
10 µM, coculture fibroblast: WS1 | 0.805 | 0.7205 | 0.6615 | 0.591 | 0.537 | 0.504 | 0.471 | 0.445 | 0.433
100 µM, coculture fibroblast: C12385 | 0.732 | 0.593 | 0.528 | 0.48 | 0.427 | 0.412 | 0.396 | 0.373 | 0.369
100 µM, coculture fibroblast: H6013 | 0.66 | 0.524 | 0.473 | 0.433 | 0.4 | 0.401 | 0.374 | 0.361 | 0.293
100 µM, coculture fibroblast: H6019 | 0.696 | 0.559 | 0.49 | 0.41 | 0.363 | 0.341 | 0.308 | 0.279 | 0.264
100 µM, coculture fibroblast: H6076 | 0.795 | 0.725 | 0.636 | 0.588 | 0.512 | 0.489 | 0.454 | 0.429 | 0.431
100 µM, coculture fibroblast: H6231 | 0.813 | 0.717 | 0.634 | 0.629 | 0.542 | 0.511 | 0.479 | 0.455 | 0.457
100 µM, coculture fibroblast: HADF | 0.661 | 0.5545 | 0.51 | 0.468 | 0.422 | 0.418 | 0.386 | 0.375 | 0.309
100 µM, coculture fibroblast: HCFa | 0.689 | 0.542 | 0.48 | 0.439 | 0.399 | 0.383 | 0.36 | 0.345 | 0.286
100 µM, coculture fibroblast: HCPF | 0.793 | 0.788 | 0.701 | 0.614 | 0.61 | 0.581 | 0.556 | 0.531 | 0.521
100 µM, coculture fibroblast: HHSteC | 0.775 | 0.656 | 0.621 | 0.57 | 0.529 | 0.521 | 0.483 | 0.471 | 0.402
100 µM, coculture fibroblast: HMF | 0.773 | 0.704 | 0.5901 | 0.533 | 0.472 | 0.448 | 0.42 | 0.402 | 0.393
100 µM, coculture fibroblast: HPFa | 0.781 | 0.6206 | 0.5679 | 0.502 | 0.46244 | 0.453 | 0.413 | 0.4 | 0.3831
100 µM, coculture fibroblast: HUF | 0.759 | 0.56 | 0.458 | 0.372 | 0.319 | 0.308 | 0.275 | 0.258 | 0.247
100 µM, coculture fibroblast: Hs5 | 0.831 | 0.774 | 0.717 | 0.705 | 0.614 | 0.585 | 0.554 | 0.532 | 0.539
100 µM, coculture fibroblast: Hs27A | 0.641 | 0.545 | 0.531 | 0.542 | 0.48 | 0.504 | 0.482 | 0.473 | 0.39
100 µM, coculture fibroblast: Hs343T | 0.7891 | 0.703 | 0.622 | 0.586 | 0.502 | 0.477 | 0.44 | 0.424 | 0.415
100 µM, coculture fibroblast: WS1 | 0.702 | 0.53787 | 0.471 | 0.393 | 0.343 | 0.317 | 0.2886 | 0.268 | 0.262
